Patent US20160215111A1, “MATERIALS AND METHODS” (THE UNIVERSITY OF SYDNEY, priority 2013, published 2016)

Experiment: ATR-FTIR detection of surface-bound peptide (amide bands) before and after Tween-20 washing
Type: physicochemical
Conditions: 2% tween-20 wash at 70° C. (FIG. 2)

ACLGKACGRKRK [peptide 36]
peptide associated amide bands after tween-20 washing (PIII treated polystyrene): still observed
peptide associated amide bands after tween-20 washing (untreated polystyrene): not on untreated polystyrene
